One experiment deals with CCR3 (UniProt P51677). Briefly: radioligand binding; equilibrium competition binding of 125I-CCL18 on L1.2/CCR3 transfectants, increasing concentration of unlabelled competitor; only the binder purified.
Experiment [1] concerns the target T1, CC chemokine ligand 18 (CCL18) (human), P55774.
T1 chain: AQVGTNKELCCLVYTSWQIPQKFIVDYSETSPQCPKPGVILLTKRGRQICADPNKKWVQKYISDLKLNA
Kind of experiment: SEC; 500 ug CCL18 and an equimolar amount of Evasin incubated 45 min at RT in PBS, Superdex 75 in PBS, 1.5 ml/min, calibrated column; fractions on silver stained SDS-PAGE; CCL18 and Evasins also run alone; both purified. The following applies: remark: other sources report otherwise. A general note: Size exclusion chromatography separates by hydrodynamic size, large species first.

Chains of the proteins cited; added tags and fusions are not shown.
UniProt P51677: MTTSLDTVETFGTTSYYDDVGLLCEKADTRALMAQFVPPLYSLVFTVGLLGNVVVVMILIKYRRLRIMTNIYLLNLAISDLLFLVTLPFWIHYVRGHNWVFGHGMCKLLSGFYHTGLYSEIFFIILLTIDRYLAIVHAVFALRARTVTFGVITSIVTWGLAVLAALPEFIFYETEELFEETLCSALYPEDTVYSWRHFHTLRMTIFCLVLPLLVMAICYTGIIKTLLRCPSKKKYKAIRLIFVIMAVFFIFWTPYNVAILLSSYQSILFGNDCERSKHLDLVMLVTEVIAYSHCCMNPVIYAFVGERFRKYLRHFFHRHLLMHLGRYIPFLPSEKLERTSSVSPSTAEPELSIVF

The record followed here is paper PMC3711072.

No constants are given. Whether binding was seen depends on the method and setting. Some binding calls cover weakened binding; strength is not graded here.

B1: Radiolabeled CCL18 (125I-CCL18) (ligand, UniProt P55774 21-89)
chain: T1 chain
modifications: 125I label (radiolabeled; residue not stated)
On to B1, for which, in the experiment with CCR3, the binding result is on record as “binds”.

B2: CC chemokine ligand 18 (CCL18), P55774 21-89 (ligand)
chain: T1 chain
For the molecule B2, the binding entry in experiment [1] is “no binding”.
